Results taken from PubChem BioAssay AID248 (DTP/NCI, 2004).
The list does not hold the whole screen: it is rich in T/C values a quarter to a half above the control, in often repeated tests (any T/C) and in doses without a T/C. Further doses and runs are listed elsewhere. T/C gives the treated animals as a percentage of the vehicle group. Some doses have a count of surviving animals in place of a T/C: the source files T/C as zero there, which appears to mark a toxic dose or a test without result, not a measured value. Counts of survivors are from the toxicity check (mostly the fifth day) where no day follows; animals may have died later. Schedule codes are those of the source, read here as Q, the interval in days (D) or hours (H), X, the number of doses. Some doses were run more than once; their values stand side by side, smallest first. Where survival is the endpoint, this PubChem deposit counts one and a half times the control or more as active, and values a quarter to a half above the control carry no call in these data; other NCI protocols may use other cut-offs. Some schedule codes hold Z or #, which are not explained here. Some T/C values carry the count of animals alive at the toxicity check (mostly the fifth day); where none is given, no animal had died by that day.

Test system: L1210 leukemia ip in BDF1 mice, survival T/C
Assay: NCI In Vivo Anticancer Drug Screen. Data for tumor model L1210 Leukemia (intraperitoneal) in B6D2F1 (BDF1) mice
Conditions: T/C endpoint: mean survival time, higher T/C = longer survival
[1] = dose: 400.0 mg/kg/injection, schedule: Q01DX001 (ip), vehicle: saline
[2] = dose: 200.0 mg/kg/injection, schedule: Q01DX009 (ip), vehicle: Klucel (hydroxypropylcellulose) (HPC)

## Nc1nc(=S)c2[nH]c(=S)[nH]c2[nH]1
dose: 25.0 mg/kg/injection, schedule: Q01DX009 (ip), vehicle: saline
  T/C: 128 % of control
dose: 35.0 mg/kg/injection, schedule: Q01DX Z (ip), vehicle: saline
  T/C: 129 % of control
dose: 50.0 mg/kg/injection, schedule: Q01DX009 (ip), vehicle: saline
  T/C: 135 % of control
dose: 50.0 mg/kg/injection, schedule: Q01DX Z (ip), vehicle: carboxymethylcellulose (CMC)
  T/C: 132 % of control [4 of 6 alive]
dose: 50.0 mg/kg/injection, schedule: Q01DX Z (ip), vehicle: saline
  T/C: 125 % of control
dose: 100.0 mg/kg/injection, schedule: Q01DX009 (ip), vehicle: saline
  T/C: 140 % of control
dose: 100.0 mg/kg/injection, schedule: Q01DX Z (ip), vehicle: carboxymethylcellulose (CMC)
  T/C: 142 % of control [5 of 6 alive]
dose: 200.0 mg/kg/injection, schedule: Q01DX Z (ip), vehicle: carboxymethylcellulose (CMC)
  T/C: 132 % of control [4 of 6 alive]
dose: 265.0 mg/kg/injection, schedule: Q01DX001 (ip), vehicle: saline
  T/C: 138 % of control
[1]
  T/C: 128 % of control
dose: 600.0 mg/kg/injection, schedule: Q01DX001 (ip), vehicle: saline
  T/C: 135 % of control

## CN=C(N)c1ccc(N=C(N)c2ccc(N=C(N)c3ccc(NC(=O)Nc4cccc(NC(=O)Nc5ccc(C(N)=Nc6ccc(C(N)=Nc7ccc(C(N)=NC)cc7)cc6)cc5)c4)cc3)cc2)cc1
dose: 15.0 mg/kg/injection, schedule: Q01DX001 (ip), vehicle: water
  T/C: 137 % of control
dose: 112.0 mg/kg/injection, schedule: Q01DX001 (ip), vehicle: water
  survivor count: 2 of 10 and 4 of 10
dose: 150.0 mg/kg/injection, schedule: Q01DX001 (ip), vehicle: water
  survivor count: 1 of 6

## c1ccc([P+](CCCCCCCCCC[P+](c2ccccc2)(c2ccccc2)c2ccccc2)(c2ccccc2)c2ccccc2)cc1
dose: 40.0 mg/kg/injection, schedule: Q01DX001 (ip), vehicle: saline
  survivor count: 0 of 4
dose: 50.0 mg/kg/injection, schedule: Q01DX001 (ip), vehicle: saline
  survivor count: 0 of 4
dose: 80.0 mg/kg/injection, schedule: Q01DX001 (ip), vehicle: saline
  survivor count: 0 of 4
dose: 100.0 mg/kg/injection, schedule: Q01DX001 (ip), vehicle: saline
  survivor count: 0 of 4
dose: 200.0 mg/kg/injection, schedule: Q01DX001 (ip), vehicle: saline
  survivor count: 0 of 4
[1]
  survivor count: 0 of 4

## CC(=O)C(C)=P(c1ccccc1)(c1ccccc1)c1ccccc1
dose: 200.0 mg/kg/injection, schedule: Q01DX009 (ip), vehicle: saline
  survivor count: 0 of 6
dose: 400.0 mg/kg/injection, schedule: Q01DX009 (ip), vehicle: saline
  survivor count: 0 of 6

## CC(C)=CCC/C(C)=C/Cn1cnc2c(ncn2C2OC(CO)C(O)C2O)c1=O (stereo not given)
dose: 100.0 mg/kg/injection, schedule: Q01DX005 (ip), vehicle: saline
  survivor count: 3 of 6
dose: 200.0 mg/kg/injection, schedule: Q01DX005 (ip), vehicle: saline
  survivor count: 3 of 6

## O=[N+]([O-])c1ccc(Cl)nc1
dose: 400.0 mg/kg/injection, schedule: Q01DX009 (ip), vehicle: saline sonified
  survivor count: 3 of 6

## c1ccc2c(c1)ccc1cc3ccncc3cc12
[1]
  T/C: 127 % of control

## Cc1cc(N(CCCl)CCCl)ccc1C=Nc1ccc(C(=O)O)c(O)c1
dose: 400.0 mg/kg/injection, schedule: Q01DX001 (ip), vehicle: carboxymethylcellulose (CMC)
  survivor count: 1 of 4

## CC(=O)OCC(OC(C)=O)C(OC(C)=O)C(OC(C)=O)C(/C=N/NC(N)=S)=N/NC(N)=S (stereo not given)
dose: 400.0 mg/kg/injection, schedule: Q01DX009 (ip), vehicle: other
  survivor count: 2 of 6

## CCNC(C)(C)C(Cl)c1ccc(Cl)s1 (stereo not given)
[2]
  survivor count: 3 of 6
dose: 200.0 mg/kg/injection, schedule: Q04DX003 (ip), vehicle: Klucel (hydroxypropylcellulose) (HPC)
  survivor count: 2 of 6
dose: 400.0 mg/kg/injection, schedule: Q04DX003 (ip), vehicle: Klucel (hydroxypropylcellulose) (HPC)
  survivor count: 2 of 6

## CC(=O)Nc1ccc(OCc2ccccc2)c(C)c1C
dose: 100.0 mg/kg/injection, schedule: Q01DX009 (ip), vehicle: Klucel (hydroxypropylcellulose) (HPC)
  survivor count: 0 of 6
[2]
  survivor count: 0 of 6
dose: 400.0 mg/kg/injection, schedule: Q01DX009 (ip), vehicle: Klucel (hydroxypropylcellulose) (HPC)
  survivor count: 0 of 6

## O=Cc1[nH]c(=S)[nH]c(=O)c1Cc1ccc2ccccc2c1
dose: 400.0 mg/kg/injection, schedule: Q01DX001 (ip), vehicle: saline with Tween-80
  survivor count: 3 of 6
